Assay results: publication PMC4847768
Results are given in words; binding and its absence hold for the method and conditions named. In cells and extracts the contact can be indirect. Some entries that bind do so weakly or less than the wild type. Sequences can lack the tags named with a protein.

B1: prolyl 3-hydroxylase 3 (P3H3), endogenous (enzyme, UniProt Q8CG70 20-732)
chain: EPPEPPGLAQLSPGSPPQAPDLLYADGLRAYSAGAWAPAVALLREALRSRAALGRARQECGASCAAEPGAALPSQLLGAPHPVSGPGVWEPLLLRATLRRAECLTQCAVRRLGPGGAARLRVGSALRDAFRRREPYNYLQRAYYQLKKLDLAASAAHTFFVANPTHLQMREDMAKYRRMSAIRPQSFRDLVTPLYWAAYDTGLELLEQREAALALPQLEEALQGSLAHMESCRAACEGPEEHQGAEEEGEGSQGGLYEAIAGHWIRVLQCRQHCVADTATRPGRSFPVQDFLLSQLRRLHEAYAQVGNMSQAMENVLSVLLFYPEDEAAKKALNQYQTQLGEPRPDLGPREDIQRFILRSLGEKRQLYYAMEHLGTSFKDPDSWTPEALIPKALRERLREDQEKKPWDHQPPQQKPLAHWKDALLMEGVTLTQDAQQLNGSERAVLDGLLTSAECGVLLQLAKDAAQAGARSGYRGRRSPHSPHERFEGLTVLKAAQLARAGTVGRPGAKLLLEVSERVRTLTQAYFSPERPLHLSFTHLVCRSAIEGEQEQRMDLSHPVHADNCVLDPDTGECWREPPAYTYRDYSGLLYLNDDFKGGDLFFTQPNALTVTAQVRPRCGRLVAFSSGGENPHGVWAVTRGRRCALALWHTWAPEHSEQEWTEAKELLQEEEEEEEEEDILSRDPSPEPPSHKLQRVQEKAGKPRRVRVREEL
B2: SC65-Flag (Synaptonemal Complex 65, P3H4) (protein, UniProt Q8K2B0 19-443)
chain: QYEKYSFRGFPPEDLMPLATAYGHALEQYEGESWRESARYLEAALRLHRLLRDSEAFCHANCSGPATSQPRPASGPDGDHDGDGEDWARELRLFGHVLERAACLRRCKKTLPAFQVPYPPRQLLRDFQSRLPYQYLHYAHFKANRLEKAVAAAYTFLQRNPKHELTAKYLNYYRGMLDIGDESLTDLEAQPYEAVFLRAVKLYNSGDFRSSTEDMERALAEYMTVFARCLAGCEGAHEQVDFKDFYPAIADLFAESLQCKVDCETNLTPNVGGFFVDKFVATMYHYLQFAYYKLNDVRQAARSAASYMLFDPKDSVMQQNLVYYRFHRARWGLEDEDFQPREEAMLYHNQTSELRELLDFTHMYLQSDDEMELEETESLPEPEEPLSDAEFEGEGDYEEGLYADWWQEPEAKGDEAEAEPEPELT
B3: HA-tagged lysyl-hydroxylase 1 (LH1-HA) (enzyme, UniProt Q9R0E2 19-728)
chain: KDDAKLEDNLLVLTVATKETEGFRRFKRSAQFFNYKIQSLGLGEDWSVDGGPAAAGGGQKVRLLKKALEKHADKEDLVILFVDSYDVVFASGPRELLKKFQQAKSQVVFSAEEHIYPDRRLEAKYPTVPDGKRFLGSGGFIGYAPSLSKLVAEWEGQDSDSDQLFYTKIFLNPEKREQINISLDHRCRIFQNLDGALDEVVLKFEMGHVRARNLAYDTLPVVVHGNGPTKLQLNYLGNYIPRFWTFETGCTVCDEGLRSLKGIGDEALPTVLVGVFIEQPTPFLSLFFLRLLRLRYPQKQMRLFIHNQERHHKLQVEQFLAEHGSEYQSVKLVGPEVRMANADARNMGADLCRQDQTCTYYFSVDADVALTEPNSLRLLIEQNKNVIAPLMTRHGRLWSNFWGGLSADGYYARSEDYVDIVQGRRVGVWNVPYISNIYLIKGSALRAELQNVDLFHYSKLDSDMSFCANVRQQEVFMFLTNRHTFGHLLSLDNYQTTHLHNDLWEVFSNPEDWKEKYIHENYTKALAGKLVETPCPDVYWFPIFTEAACDELVEEMEHYGQWSLGDNKDNRIQGGYENVPTIDIHMNQITFEREWHKFLVEYIAPMTEKLYPGYYTRAQFDLAFVVRYKPDEQPSLMPHHDASTFTVNIALNRVGEDYEGGGCRFLRYNCSVRAPRKGWALLHPGRLTHYHEGLPTTKGTRYIAVSFVDP
B4: lysyl-hydroxylase 1 (LH1), endogenous (enzyme, UniProt Q9R0E2 19-728)
chain: B3 chain

Assays:
[1] = molecular target: T1, SC65-Flag (Synaptonemal Complex 65, P3H4) (mouse) (UniProt Q8K2B0); assay: co-IP + SEC; Large-scale anti-Flag IP from 714 cells stably expressing SC65-Flag (72 h ascorbic acid 100 μg/ml), eluted with excess Flag peptide (500 ug/ml), run on Superdex 200 Increase 10/300 GL in 50mM phosphate, 0.15M NaCl pH7.4 at room temperature; 500 ul fractions TCA-concentrated and blotted
T1 sequence: B2 chain

[2] = molecular target: T1, SC65-Flag (Synaptonemal Complex 65, P3H4) (mouse); assay: co-IP; 714 cells stably expressing SC65-Flag or empty vector (EV), where named transiently transfected with LH1-HA or CYPB-HA (48 h); for LH1-HA with P3H3: 714-pLen-EV cells transfected with LH1-HA in the presence of ascorbic acid; lysate with anti-DDDK, anti-HA or P3H3 antibody overnight at 4°C, A/G magnetic beads 4 h; elution at pH 2; Western blot
[3] = molecular target: T2, HA-tagged lysyl-hydroxylase 1 (LH1-HA) (mouse) (UniProt Q9R0E2); assay: as above
T2 sequence: B3 chain

[4] = molecular target: T3, prolyl 3-hydroxylase 3 (P3H3), endogenous (mouse (endogenous in 714 cells)) (UniProt Q8CG70); assay: as above
T3 sequence: B1 chain

Binder	binding [1]	binding [2]	binding [3]	binding [4]
B1	binds	binds	binds	–
B2	–	–	binds	binds
B3	–	binds	–	binds
B4	binds	–	–	–
